In one assay the target is T1, GFP-tagged Islr (UniProt Q6GU68).
T1 sequence: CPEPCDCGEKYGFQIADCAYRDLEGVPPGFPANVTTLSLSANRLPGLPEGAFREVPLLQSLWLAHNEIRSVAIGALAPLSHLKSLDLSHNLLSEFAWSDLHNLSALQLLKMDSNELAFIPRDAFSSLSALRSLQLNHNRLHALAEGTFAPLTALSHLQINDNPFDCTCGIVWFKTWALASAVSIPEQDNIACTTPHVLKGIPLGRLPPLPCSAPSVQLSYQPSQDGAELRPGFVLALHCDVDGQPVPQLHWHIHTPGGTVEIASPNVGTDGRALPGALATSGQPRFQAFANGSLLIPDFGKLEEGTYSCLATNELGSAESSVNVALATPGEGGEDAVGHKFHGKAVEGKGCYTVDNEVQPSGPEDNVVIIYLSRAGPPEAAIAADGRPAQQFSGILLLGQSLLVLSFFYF
The experiment in a line: co-IP; reciprocal co-IP from transfected HEK293T cells extracted with IP buffer; total protein immunoprecipitated with Islr or Ndufs2 antibody and protein A/G beads; immunoblotting.

Sequences of proteins named here, by UniProt entry; tags and fusion partners are left off. A change or cut given only in a name is not applied to a line headed by its entry.
UniProt Q91WD5: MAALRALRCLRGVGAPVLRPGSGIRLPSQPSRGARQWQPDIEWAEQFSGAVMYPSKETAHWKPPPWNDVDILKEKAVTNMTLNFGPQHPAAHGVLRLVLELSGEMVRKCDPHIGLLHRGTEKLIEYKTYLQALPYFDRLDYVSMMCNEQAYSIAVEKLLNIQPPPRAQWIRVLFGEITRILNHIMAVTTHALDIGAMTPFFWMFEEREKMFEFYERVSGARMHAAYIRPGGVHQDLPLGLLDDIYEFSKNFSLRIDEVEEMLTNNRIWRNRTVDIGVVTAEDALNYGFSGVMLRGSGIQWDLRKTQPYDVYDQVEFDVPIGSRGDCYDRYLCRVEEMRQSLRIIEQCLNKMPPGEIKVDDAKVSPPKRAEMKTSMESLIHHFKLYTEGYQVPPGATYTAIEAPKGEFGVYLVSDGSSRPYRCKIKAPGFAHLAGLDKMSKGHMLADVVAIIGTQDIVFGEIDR

In assay [1] the target is T2, Immunoglobulin superfamily containing leucine-rich repeat (Islr), pGBKT7-Islr (UniProt Q6GU68).
T2 sequence: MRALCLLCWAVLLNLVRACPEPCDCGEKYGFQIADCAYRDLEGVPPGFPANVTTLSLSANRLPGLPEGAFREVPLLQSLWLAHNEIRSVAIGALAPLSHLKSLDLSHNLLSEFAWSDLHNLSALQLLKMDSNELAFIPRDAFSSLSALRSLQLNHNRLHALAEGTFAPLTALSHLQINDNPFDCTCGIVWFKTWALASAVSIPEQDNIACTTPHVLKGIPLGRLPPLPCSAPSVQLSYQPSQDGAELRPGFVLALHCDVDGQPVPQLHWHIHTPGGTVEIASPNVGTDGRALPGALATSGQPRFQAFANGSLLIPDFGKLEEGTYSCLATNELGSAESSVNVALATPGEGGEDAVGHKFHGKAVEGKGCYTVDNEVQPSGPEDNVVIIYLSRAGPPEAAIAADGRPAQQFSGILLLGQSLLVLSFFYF
The experiment in a line: two-hybrid; Y2HGold cells cotransformed with pGBKT7-Islr and pGADT7-Ndufs2, plated on QDO/X/A plates; blue colour = positive interaction.

A further assay concerns the target GFP-tagged Ndufs2 (UniProt Q91WD5). As to the kind of experiment: co-IP; reciprocal co-IP from transfected HEK293T cells extracted with IP buffer; total protein immunoprecipitated with Islr or Ndufs2 antibody and protein A/G beads; immunoblotting. (A western blot detects proteins with antibodies after separation by electrophoresis.)

These are yes or no findings as the source states them, for the method shown. For part of these data: Binding seen in cells or lysates may run through a third protein. Some entries that bind do so weakly or less than the wild type. For part of these data: Tags and fused reporters may be left off the sequences shown.

As for “GFP-tagged Ndufs2 (from UniProt Q91WD5 34-463)”, in the assay with GFP-tagged Islr, the binding entry was “binds”.
With “NADH: Ubiquinone Oxidoreductase Core Subunit S2 (Ndufs2), pGADT7-Ndufs2 (from UniProt Q91WD5 1-463)”, the binding entry in assay [1] is on record as “binds”.

B1: GFP-tagged Islr (protein, UniProt Q6GU68 19-428)
chain: CPEPCDCGEKYGFQIADCAYRDLEGVPPGFPANVTTLSLSANRLPGLPEGAFREVPLLQSLWLAHNEIRSVAIGALAPLSHLKSLDLSHNLLSEFAWSDLHNLSALQLLKMDSNELAFIPRDAFSSLSALRSLQLNHNRLHALAEGTFAPLTALSHLQINDNPFDCTCGIVWFKTWALASAVSIPEQDNIACTTPHVLKGIPLGRLPPLPCSAPSVQLSYQPSQDGAELRPGFVLALHCDVDGQPVPQLHWHIHTPGGTVEIASPNVGTDGRALPGALATSGQPRFQAFANGSLLIPDFGKLEEGTYSCLATNELGSAESSVNVALATPGEGGEDAVGHKFHGKAVEGKGCYTVDNEVQPSGPEDNVVIIYLSRAGPPEAAIAADGRPAQQFSGILLLGQSLLVLSFFYF
Turning to B1, the binding result in the assay with GFP-tagged Ndufs2 is reported as “binds”.

The record behind these values is PMC9455994.
